Experimental data reported in paper PMC11274397.
Results are given in words; binding and its absence hold for the method and conditions named. Binding seen in cells or lysates may run through a third protein.

Sequences of proteins named here, by UniProt entry; tags and fusion partners are left off. A change or cut given only in a name is not applied to a line headed by its entry. A line that says so, or that is headed by a name, gives the form on record, which may keep a tag or linker.
UniProt P67870: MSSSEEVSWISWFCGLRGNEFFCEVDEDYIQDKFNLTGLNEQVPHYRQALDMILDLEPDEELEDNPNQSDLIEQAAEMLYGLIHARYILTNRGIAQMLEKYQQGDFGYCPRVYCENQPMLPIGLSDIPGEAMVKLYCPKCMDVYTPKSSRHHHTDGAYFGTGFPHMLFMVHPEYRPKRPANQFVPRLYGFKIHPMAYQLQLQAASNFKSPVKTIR
ERα36, 36 kD variant of estrogen receptor α (P03372-4, form named): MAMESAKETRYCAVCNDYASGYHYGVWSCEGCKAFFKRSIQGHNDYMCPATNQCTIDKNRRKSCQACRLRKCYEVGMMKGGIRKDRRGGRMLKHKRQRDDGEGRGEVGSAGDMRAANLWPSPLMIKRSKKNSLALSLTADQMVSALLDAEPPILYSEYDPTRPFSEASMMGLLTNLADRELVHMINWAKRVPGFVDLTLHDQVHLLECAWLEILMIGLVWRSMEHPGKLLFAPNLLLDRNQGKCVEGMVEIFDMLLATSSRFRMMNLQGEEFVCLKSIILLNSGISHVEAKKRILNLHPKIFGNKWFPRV

Biological target: CK2β, regulatory β subunit of protein kinase CK2 (human (endogenous in MCF-7 Tam1)) (UniProt P67870)
Assay: co-IP; Pierce Classic IP Kit; 1 mg lysate of MCF-7 Tam1 cells, precleared, overnight at 4 °C with antibodies to ERα, HSP90 or CK2β or normal IgG, protein A/G plus-agarose, immunoblot; cells with or without 5 µM CX-4945 (4 h in the legend, 8 h in the text)

binding | Substance
no binding | ERα36, 36 kD variant of estrogen receptor α (from UniProt P03372-4 1-310)
no binding | Estrogen receptor α, full-length receptor (ERα66) (from UniProt P03372-1 1-595)
